Record: PubChem BioAssay AID1259425 (University of Nebraska Medical Center, 2018)
In all, the deposit lists about 14,000 reagents; below is a part drawn at random. Not all columns of the deposit are shown. Reagent sequences are not shown. Not given: the time to read-out.

- Test: 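Seek colon cancer weak points whose silencing resembles KSR1 loss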 (primary screen)
- System: HCT116 human colon cancer cells
- Reagent: siRNA pool against human genes, 50 nM siRNA
- Read-out: 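mRNA of six signature genes measured together by branched-DNA assay after 50 nM siRNA pool, blank removed, divided by geometric mean of two housekeeping genes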
- Reading the numbers: BNIP3L mRNA: higher = more BNIP3L transcript after knockdown

{"Gene": "TESMIN (testis expressed metallothionein like protein)", "BNIP3L mRNA, set 1": 0.196}
{"Gene": "ENAH (ENAH actin regulator)", "BNIP3L mRNA, set 1": 0.121}
{"Gene": "MAN2A2 (mannosidase alpha class 2A member 2)", "BNIP3L mRNA, set 1": 0.118}
{"Gene": "SLC41A2", "BNIP3L mRNA, set 1": 0.168}
{"Gene": "F8 (coagulation factor VIII)", "BNIP3L mRNA, set 1": 0.117}
{"Gene": "CLASP1 (cytoplasmic linker associated protein 1)", "BNIP3L mRNA, set 1": 0.121}
{"Gene": "UQCC2 (ubiquinol-cytochrome c reductase complex assembly factor 2)", "BNIP3L mRNA, set 1": 0.0998}
{"Gene": "GATAD2B (GATA zinc finger domain containing 2B)", "BNIP3L mRNA, set 1": 0.154}
{"Gene": "SCARF2 (scavenger receptor class F member 2)", "BNIP3L mRNA, set 1": 0.0884}
{"Gene": "ITM2B (integral membrane protein 2B)", "BNIP3L mRNA, set 1": 0.14}
{"Gene": "GLO1 (glyoxalase I)", "BNIP3L mRNA, set 1": 0.124}
{"Gene": "SETD4 (SET domain containing 4)", "BNIP3L mRNA, set 1": 0.341}
{"Gene": "SARNP (SAP domain containing ribonucleoprotein)", "BNIP3L mRNA, set 1": 0.126}
{"Gene": "HSF1 (heat shock transcription factor 1)", "BNIP3L mRNA, set 1": 0.0862}
{"Gene": "MYO7B (myosin VIIB)", "BNIP3L mRNA, set 1": 0.0958}
{"Gene": "SND1 (staphylococcal nuclease and tudor domain containing 1)", "BNIP3L mRNA, set 1": 0.0685}
{"Gene": "H4C5 (H4 clustered histone 5)", "BNIP3L mRNA, set 1": 0.121}
{"Gene": "UBL7 (ubiquitin like 7)", "BNIP3L mRNA, set 1": 0.0906}
{"Gene": "LINC00472 (long independently transcribed non-coding RNA 472)", "BNIP3L mRNA, set 1": 0.0716}
{"Gene": "PDLIM7 (PDZ and LIM domain 7)", "BNIP3L mRNA, set 1": 0.0717}
{"Gene": "BMX (BMX non-receptor tyrosine kinase)", "BNIP3L mRNA, set 1": 0.201}
{"Gene": "ASXL3 (ASXL transcriptional regulator 3)", "BNIP3L mRNA, set 1": 0.0356}
{"Gene": "CERS2 (ceramide synthase 2)", "BNIP3L mRNA, set 1": 0.0577}
{"Gene": "COXFA4 (cytochrome c oxidase associated subunit FA4)", "BNIP3L mRNA, set 1": 0.127}
{"Gene": "CTNND1 (catenin delta 1)", "BNIP3L mRNA, set 1": 0.0429}
{"Gene": "MYOD1 (myogenic differentiation 1)", "BNIP3L mRNA, set 1": 0.114}
{"Gene": "VCP (valosin containing protein)", "BNIP3L mRNA, set 1": 0.478}
{"Gene": "IL36R (interleukin 36 receptor)", "BNIP3L mRNA, set 1": 0.0583}

A portion of the results above, as a working copy:
{"Gene": "UBL7 (ubiquitin like 7)", "BNIP3L mRNA, set 1": 0.0906}
{"Gene": "LINC00472 (long independently transcribed non-coding RNA 472)", "BNIP3L mRNA, set 1": 0.0716}
{"Gene": "PDLIM7 (PDZ and LIM domain 7)", "BNIP3L mRNA, set 1": 0.0717}
{"Gene": "BMX (BMX non-receptor tyrosine kinase)", "BNIP3L mRNA, set 1": 0.201}
